Measured values reported in patent US20210130494A1.
These are yes or no findings as the source states them, for the method shown. Some entries that bind do so weakly or less than the wild type.

How the values were obtained:
[1] = molecular target: T1, CD20 on stable transfectant line 293-CD20 (UniProt P11836); experiment: flow cytometry, 293-CD20 cells, 200 µl fusion protein, anti-His-PE
T1 sequence (looked up): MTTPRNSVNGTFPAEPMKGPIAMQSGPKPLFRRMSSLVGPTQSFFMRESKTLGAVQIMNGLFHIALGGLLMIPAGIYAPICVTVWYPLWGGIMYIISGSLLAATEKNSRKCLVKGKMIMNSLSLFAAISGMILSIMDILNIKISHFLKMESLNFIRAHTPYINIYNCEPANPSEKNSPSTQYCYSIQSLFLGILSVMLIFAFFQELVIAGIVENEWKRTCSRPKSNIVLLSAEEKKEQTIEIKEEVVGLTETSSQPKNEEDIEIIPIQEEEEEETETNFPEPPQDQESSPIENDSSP

[2] = molecular target: T1, CD20 on stable transfectant line 293-CD20; experiment: flow cytometry, 293-CD20 cells

binding [1]: binds
binding [2]: binds
B1: CD22-D123-Leu16 scFv (VH/VL) (construct #65) (protein)
chain: DSSKWVFEHPETLYAWEGACVWIPCTYRALDGDLESFILFHNPEYNKNTSKFDGTRLYESTKDGKVPSEQKRVQFLGDKNKACTLSIHPVHLNDSGQLGLRMESKTEKWMERIHLNVSERPFPPHIQLPPEIQESQEVTLTCLLNFSCYGYPIQLQWLLEGVPMRQAAVTSTSLTIKSVFTRSELKFSPQWSHHGKIVTCQLQDADGKFLSNDTVQLNVKHTPKLEIKVTPSDAIVREGDSVTMTCEVSSSNPEYTTVSWLKDGTSLKKQNTFTLNLREVTKDQSGKYCCQVSNDVGPGRSEEVFLQVQYAPEGGGGSGGGGSGGGGSGGGGSEVQLQQSGAELVKPGASVKMSCKASGYTFTSYNMHWVKQTPGQGLEWIGAIYPGNGDTSYNQKFKGKATLTADKSSSTAYMQLSSLTSEDSADYYCARSNYYGSSYWFFDVWGAGTTVTVSSGSTSGGGSGGGSGGGGSSDIVLTQSPAILSASPGEKVTMTCRASSSVNYMDWYQKKPGSSPKPWIYATSNLASGVPARFSGSGSGTSYSLTISRVEAEDAATYYCQQWSFNPPTFGGGTKLEIKHHHHHH
